# Measurements from patent US20030073654A1, “Stabilized transient gene expression” (Genespan Corporation, priority 1996, published 2003).
# Assay: pH of aqueous solutions of the compounds
# Format: physicochemical
# Conditions: stock solutions prepared in culture media diluted with deionized water
# Protocol: The pH values shown in Table 1 were determined in aqueous solutions made by diluting stock solutions prepared in culture media with deionized water.
smiles,measurement,value
NCCC[C@H](N)C(=O)O [ORNITHINE],pH (H20),7.37
